We go through 40 targets from the supplement of paper PMC12819154, “High-throughput peptide-centric local stability assay extends protein–ligand identification to membrane proteins, tissues and bacteria” (Nature Structural & Molecular Biology, 2025).

The other results are listed elsewhere or left out. Most entries show no effect beyond the scatter of the controls.

Compound in the assay: CN[C@@H]1C[C@H]2O[C@@](C)([C@@H]1OC)n1c3ccccc3c3c4c(c5c6ccccc6n2c5c31)C(=O)NC4 [staurosporine]
As to the kind of experiment: log2 fold change of tryptic peptide abundance, ligand vs vehicle (limited proteolysis) (log2 ratio); higher = more trypsin-susceptible (destabilized). The settings on record: ligand concentration: 20 uM; sample: K562 cleared lysate; digestion: 4 min, 22 C (HT-PELSA RT4min, Orbitrap Astral).
Consider “UniProt P17481 (peptide sequence: RIEVSHALGLTER, peptide start residue: 176)”, for which the log2 fold change came out at 0.144.

Take “G0S2 (peptide sequence: QQDTVLGGR, peptide start residue: 86) (UniProt P27469)”: the log2 fold change was found to be 0.348. Regarding “UniProt P27361 (peptide sequence: ISPFEHQTYCQR, peptide start residue: 56)”, the log2 fold change is -0.486. Consider “GOT1 (peptide sequence: LALGDDSPALK, peptide start residue: 87) (UniProt P17174)”, for which the log2 fold change turned out to be 0.346. For the target “UBA1 (peptide sequence: LAGTQPLEVLEAVQR, peptide start residue: 679) (UniProt P22314)”, the log2 fold change came out at 0.146. The same measure for “PSMA4 (peptide sequence: LLDEVFFSEK, peptide start residue: 55) (UniProt P25789)”: -0.0961; for “ATF3 (peptide sequence: NLFIQQIK, peptide start residue: 168) (UniProt P18847)”: -0.119; for “MDK (peptide sequence: YNAQCQETIR, peptide start residue: 112) (UniProt P21741)”: -0.177.

Turning to “DGKA (peptide sequence: DIGVQSHVWVR, peptide start residue: 264) (UniProt P23743)”, the log2 fold change is -0.386.

On to “ALAS2 (peptide sequence: RPVHFELMSEWER, peptide start residue: 560) (UniProt P22557)”, for which the log2 fold change was -0.283. The result for “HIVEP1 (peptide sequence: SSPAPSENTHISPLK, peptide start residue: 1873) (UniProt P15822)” reads -0.589. Regarding “PSMA2 (peptide sequence: AANGVVLATEKK, peptide start residue: 40) (UniProt P25787)”, the log2 fold change amounted to 0.0498. “TNFAIP3 (peptide sequence: TFNGICSTCFKR, peptide start residue: 531) (UniProt P21580)”: the log2 fold change is -0.171.

“RPL7 (peptide sequence: HYHKEYR, peptide start residue: 56) (UniProt P18124)”: the log2 fold change is 0.327. Turning to “UniProt P17600 (peptide sequence: QASQAGPVPR, peptide start residue: 603)”, the log2 fold change was -0.109. Turning to “PTPN2 (peptide sequence: MQDTMEENSESALRK, peptide start residue: 337) (UniProt P17706)”, the log2 fold change was -0.487.

“NFKBIA (peptide sequence: HDSGLDSMKDEEYEQMVK, peptide start residue: 30) (UniProt P25963)”: the log2 fold change was 0.623. The result for “UniProt P16989 (peptide sequence: VLATKVLGTVKWFNVR, peptide start residue: 86)” reads 0.726; that for “PTMS (peptide sequence: SVEAAAELSAK, peptide start residue: 5) (UniProt P20962)”, -0.134. On to “IMPDH1 (peptide sequence: DIDFLAEKDHTTLLSEVMTPR, peptide start residue: 162) (UniProt P20839)”, for which the log2 fold change stood at 0.306.

On to “CREB1 (peptide sequence: ILNDLSSDAPGVPR, peptide start residue: 123) (UniProt P16220)”, for which the log2 fold change was found to be 0.233. For the target “CCDC130 (peptide sequence: LEHGEADR, peptide start residue: 149) (UniProt P13994)”, the log2 fold change is -0.159. The same measure for “HIST1H1C (peptide sequence: AKKPAAATVTK, peptide start residue: 158) (UniProt P16403)”: 0.133; for “MYL6B (peptide sequence: NRGQGTYEDYLEGFR, peptide start residue: 137) (UniProt P14649)”: -0.457; for “DNAJB1 (peptide sequence: EGDQTSNNIPADIVFVLK, peptide start residue: 223) (UniProt P25685)”: -0.149. The same measure for “NFYA (peptide sequence: AKLEAEGKIPK, peptide start residue: 283) (UniProt P23511)”: -0.0631; for “ATF7 (peptide sequence: KAADEDEKK, peptide start residue: 80) (UniProt P17544)”: 0.583; for “POLR2C (peptide sequence: PYANQPTVR, peptide start residue: 2) (UniProt P19387)”: -0.185.

In the case of “HIST1H1D (peptide sequence: KPATAAGTKK, peptide start residue: 161) (UniProt P16402)”, the log2 fold change stood at 0.263.

As to “NFYB (peptide sequence: NAIPQTGKIAK, peptide start residue: 70) (UniProt P25208)”, the log2 fold change was 0.472. For “YY1 (peptide sequence: SYLSGGAGAAGGGGADPGNKK, peptide start residue: 184) (UniProt P25490)”, the log2 fold change is -0.218. On to “S100A4 (peptide sequence: ALDVMVSTFHK, peptide start residue: 8) (UniProt P26447)”, for which the log2 fold change is -0.412. The result for “GYS1 (peptide sequence: RASCTSSTSGSKR, peptide start residue: 696) (UniProt P13807)” reads -1; that for “LMNB1 (peptide sequence: EQHDAQVR, peptide start residue: 251) (UniProt P20700)”, 0.318. Take “AHCY (peptide sequence: GISEETTTGVHNLYK, peptide start residue: 152) (UniProt P23526)”: the log2 fold change is -0.518. The same measure for “YWHAQ (peptide sequence: VISSIEQKTDTSDKK, peptide start residue: 61) (UniProt P27348)”: 0.653. The same measure for “TCP1 (peptide sequence: ICDDELILIKNTK, peptide start residue: 356) (UniProt P17987)”: 0.315. With “APC (peptide sequence: GGAQSGEFEKR, peptide start residue: 1677) (UniProt P25054)”, the log2 fold change came to 1.01.

On to “ETFA (peptide sequence: VVPEMTEILK, peptide start residue: 322) (UniProt P13804)”, for which the log2 fold change was 0.223. The result for “UQCRB (peptide sequence: DDTIYEDEDVKEAIR, peptide start residue: 35) (UniProt P14927)” reads -0.266.
